Data as given in the supplement of paper PMC10849652.
The list shows a part of the results.

By UniProt entry, the sequences of proteins in these tests, tags left out. Where a name states a change or a piece, a line headed by the entry shows the natural chain unless it says otherwise.
UniProt Q07864, whole entry, looked up: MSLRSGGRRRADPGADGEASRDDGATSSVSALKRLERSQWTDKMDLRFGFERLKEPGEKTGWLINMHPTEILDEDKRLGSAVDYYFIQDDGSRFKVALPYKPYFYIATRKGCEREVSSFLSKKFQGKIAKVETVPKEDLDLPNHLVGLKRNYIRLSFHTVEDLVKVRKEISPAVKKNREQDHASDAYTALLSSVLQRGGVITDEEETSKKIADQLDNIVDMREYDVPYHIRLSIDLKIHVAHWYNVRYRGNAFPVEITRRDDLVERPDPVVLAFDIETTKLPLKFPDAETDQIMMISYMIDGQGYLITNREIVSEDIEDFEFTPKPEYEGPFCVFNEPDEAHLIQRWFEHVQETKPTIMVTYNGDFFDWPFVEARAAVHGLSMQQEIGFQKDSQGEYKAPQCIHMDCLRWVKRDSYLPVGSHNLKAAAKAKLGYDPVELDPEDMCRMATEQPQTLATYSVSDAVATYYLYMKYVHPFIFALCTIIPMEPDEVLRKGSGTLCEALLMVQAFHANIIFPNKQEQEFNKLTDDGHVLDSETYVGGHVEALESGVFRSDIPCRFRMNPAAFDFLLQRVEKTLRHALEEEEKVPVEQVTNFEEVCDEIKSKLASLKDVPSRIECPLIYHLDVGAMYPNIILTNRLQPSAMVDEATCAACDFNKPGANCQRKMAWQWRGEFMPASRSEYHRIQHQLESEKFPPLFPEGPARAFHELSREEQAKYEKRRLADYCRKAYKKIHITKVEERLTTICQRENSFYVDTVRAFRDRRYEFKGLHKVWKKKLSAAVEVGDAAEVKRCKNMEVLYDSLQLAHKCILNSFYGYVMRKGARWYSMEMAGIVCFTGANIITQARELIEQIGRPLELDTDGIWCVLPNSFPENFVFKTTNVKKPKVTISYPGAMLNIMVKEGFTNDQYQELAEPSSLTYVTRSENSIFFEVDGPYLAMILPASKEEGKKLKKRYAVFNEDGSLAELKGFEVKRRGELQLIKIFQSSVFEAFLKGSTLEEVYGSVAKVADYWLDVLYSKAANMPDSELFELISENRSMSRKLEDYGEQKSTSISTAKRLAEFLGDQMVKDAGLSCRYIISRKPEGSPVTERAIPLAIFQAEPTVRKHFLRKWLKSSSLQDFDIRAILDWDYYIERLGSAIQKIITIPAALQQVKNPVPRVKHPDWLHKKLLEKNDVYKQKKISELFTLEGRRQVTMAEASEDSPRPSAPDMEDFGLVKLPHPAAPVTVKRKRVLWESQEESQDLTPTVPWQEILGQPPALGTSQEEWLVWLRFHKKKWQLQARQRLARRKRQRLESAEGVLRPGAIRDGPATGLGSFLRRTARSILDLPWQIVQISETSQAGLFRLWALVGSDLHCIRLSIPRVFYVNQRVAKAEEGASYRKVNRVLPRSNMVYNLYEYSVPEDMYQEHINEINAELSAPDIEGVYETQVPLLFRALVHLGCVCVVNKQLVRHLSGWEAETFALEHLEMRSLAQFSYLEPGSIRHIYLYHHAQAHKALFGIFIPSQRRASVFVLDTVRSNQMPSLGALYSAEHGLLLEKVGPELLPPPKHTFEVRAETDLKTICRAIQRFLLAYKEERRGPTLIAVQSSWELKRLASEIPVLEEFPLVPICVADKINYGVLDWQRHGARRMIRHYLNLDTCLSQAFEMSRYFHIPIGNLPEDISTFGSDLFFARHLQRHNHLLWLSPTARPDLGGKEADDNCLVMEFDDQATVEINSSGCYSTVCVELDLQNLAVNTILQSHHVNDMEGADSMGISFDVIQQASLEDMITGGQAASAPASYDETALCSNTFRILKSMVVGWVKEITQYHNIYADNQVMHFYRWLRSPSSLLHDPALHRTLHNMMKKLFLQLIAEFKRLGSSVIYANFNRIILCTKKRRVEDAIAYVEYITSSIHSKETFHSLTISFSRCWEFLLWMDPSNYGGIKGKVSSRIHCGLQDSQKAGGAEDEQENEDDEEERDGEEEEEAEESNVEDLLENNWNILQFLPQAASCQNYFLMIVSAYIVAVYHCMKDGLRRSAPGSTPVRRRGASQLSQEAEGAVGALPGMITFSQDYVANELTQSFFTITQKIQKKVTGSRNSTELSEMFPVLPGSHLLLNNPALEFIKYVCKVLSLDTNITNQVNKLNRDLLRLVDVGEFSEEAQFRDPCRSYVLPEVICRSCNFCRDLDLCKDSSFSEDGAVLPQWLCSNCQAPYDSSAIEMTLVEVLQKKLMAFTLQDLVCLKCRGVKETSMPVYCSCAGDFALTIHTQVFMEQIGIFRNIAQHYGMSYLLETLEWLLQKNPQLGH
UniProt Q9GZS1, whole entry, looked up: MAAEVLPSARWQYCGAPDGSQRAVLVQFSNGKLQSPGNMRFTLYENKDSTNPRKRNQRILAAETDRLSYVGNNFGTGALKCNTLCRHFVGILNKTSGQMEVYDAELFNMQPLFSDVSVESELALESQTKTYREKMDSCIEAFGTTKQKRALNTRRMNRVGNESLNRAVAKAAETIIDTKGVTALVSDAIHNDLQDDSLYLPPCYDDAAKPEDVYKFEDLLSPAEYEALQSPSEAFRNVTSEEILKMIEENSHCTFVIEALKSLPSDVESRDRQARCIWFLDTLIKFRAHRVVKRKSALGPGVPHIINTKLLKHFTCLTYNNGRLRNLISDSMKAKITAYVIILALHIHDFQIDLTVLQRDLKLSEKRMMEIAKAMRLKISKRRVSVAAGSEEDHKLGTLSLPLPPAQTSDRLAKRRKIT
UniProt Q9H2U2: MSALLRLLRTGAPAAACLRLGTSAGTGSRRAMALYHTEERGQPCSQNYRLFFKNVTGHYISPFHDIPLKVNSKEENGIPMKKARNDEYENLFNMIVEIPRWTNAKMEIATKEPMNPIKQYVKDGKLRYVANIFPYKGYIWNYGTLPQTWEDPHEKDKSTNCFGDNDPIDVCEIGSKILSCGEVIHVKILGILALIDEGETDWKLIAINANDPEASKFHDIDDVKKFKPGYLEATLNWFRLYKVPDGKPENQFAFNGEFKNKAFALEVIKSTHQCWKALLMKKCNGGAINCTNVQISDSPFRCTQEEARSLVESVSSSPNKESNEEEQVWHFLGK
UniProt Q15054: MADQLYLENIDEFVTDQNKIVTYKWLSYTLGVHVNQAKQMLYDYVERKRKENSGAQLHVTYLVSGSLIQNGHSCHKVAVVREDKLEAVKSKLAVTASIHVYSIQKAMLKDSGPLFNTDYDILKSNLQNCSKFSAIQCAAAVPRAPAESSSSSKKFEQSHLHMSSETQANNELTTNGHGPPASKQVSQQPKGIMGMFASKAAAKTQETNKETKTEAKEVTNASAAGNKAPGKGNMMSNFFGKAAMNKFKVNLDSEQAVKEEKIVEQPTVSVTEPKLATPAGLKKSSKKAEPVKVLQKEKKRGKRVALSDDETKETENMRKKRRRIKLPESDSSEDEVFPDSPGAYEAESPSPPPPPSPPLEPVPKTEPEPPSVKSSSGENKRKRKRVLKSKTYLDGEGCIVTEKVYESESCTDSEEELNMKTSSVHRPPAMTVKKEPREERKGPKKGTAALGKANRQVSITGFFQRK
UniProt Q15063: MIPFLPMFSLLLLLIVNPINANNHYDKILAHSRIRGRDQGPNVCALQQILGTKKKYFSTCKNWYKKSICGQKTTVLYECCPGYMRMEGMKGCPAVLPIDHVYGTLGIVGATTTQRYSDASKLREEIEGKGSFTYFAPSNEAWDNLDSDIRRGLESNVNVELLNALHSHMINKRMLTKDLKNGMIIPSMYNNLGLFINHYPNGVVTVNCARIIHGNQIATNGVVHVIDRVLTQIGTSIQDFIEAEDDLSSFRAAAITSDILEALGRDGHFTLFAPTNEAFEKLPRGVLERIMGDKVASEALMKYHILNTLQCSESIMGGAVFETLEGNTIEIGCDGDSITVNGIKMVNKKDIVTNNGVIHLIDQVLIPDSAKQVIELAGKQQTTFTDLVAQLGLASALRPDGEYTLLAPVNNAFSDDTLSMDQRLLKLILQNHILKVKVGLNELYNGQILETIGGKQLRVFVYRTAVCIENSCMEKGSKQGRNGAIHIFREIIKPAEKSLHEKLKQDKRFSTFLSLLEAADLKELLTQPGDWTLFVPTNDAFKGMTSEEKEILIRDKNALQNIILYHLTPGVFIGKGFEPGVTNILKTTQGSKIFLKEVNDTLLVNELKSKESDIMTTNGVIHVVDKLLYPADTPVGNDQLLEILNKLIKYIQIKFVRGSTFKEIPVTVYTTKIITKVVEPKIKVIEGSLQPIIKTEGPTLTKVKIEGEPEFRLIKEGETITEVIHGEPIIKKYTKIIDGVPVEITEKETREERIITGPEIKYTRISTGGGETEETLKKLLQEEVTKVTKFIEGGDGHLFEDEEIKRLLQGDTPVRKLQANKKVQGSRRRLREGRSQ
UniProt Q08752, whole entry, looked up: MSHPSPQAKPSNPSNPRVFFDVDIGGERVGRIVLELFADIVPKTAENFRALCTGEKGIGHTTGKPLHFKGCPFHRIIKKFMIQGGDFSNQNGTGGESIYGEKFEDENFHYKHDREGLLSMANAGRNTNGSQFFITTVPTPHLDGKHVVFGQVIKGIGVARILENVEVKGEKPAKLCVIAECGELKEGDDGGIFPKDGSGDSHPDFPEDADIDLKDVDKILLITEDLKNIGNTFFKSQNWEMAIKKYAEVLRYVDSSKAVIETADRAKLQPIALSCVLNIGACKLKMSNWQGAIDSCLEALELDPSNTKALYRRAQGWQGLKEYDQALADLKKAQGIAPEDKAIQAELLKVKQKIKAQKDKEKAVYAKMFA
UniProt Q04941: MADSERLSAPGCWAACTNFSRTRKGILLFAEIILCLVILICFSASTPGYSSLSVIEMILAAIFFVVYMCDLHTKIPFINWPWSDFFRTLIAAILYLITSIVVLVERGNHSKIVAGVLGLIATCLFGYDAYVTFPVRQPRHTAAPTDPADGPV
UniProt Q9Y2G5: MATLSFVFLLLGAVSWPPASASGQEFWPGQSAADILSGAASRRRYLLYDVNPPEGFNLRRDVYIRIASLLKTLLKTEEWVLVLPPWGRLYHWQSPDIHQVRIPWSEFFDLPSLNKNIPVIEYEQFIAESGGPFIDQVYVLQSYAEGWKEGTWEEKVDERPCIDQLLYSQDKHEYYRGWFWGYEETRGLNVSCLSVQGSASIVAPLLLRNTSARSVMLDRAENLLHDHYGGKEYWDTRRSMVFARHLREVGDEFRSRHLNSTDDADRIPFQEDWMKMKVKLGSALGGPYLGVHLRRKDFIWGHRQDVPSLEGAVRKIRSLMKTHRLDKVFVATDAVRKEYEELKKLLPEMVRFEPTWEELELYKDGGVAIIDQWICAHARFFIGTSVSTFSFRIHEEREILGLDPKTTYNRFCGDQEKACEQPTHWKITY
UniProt Q9BY77: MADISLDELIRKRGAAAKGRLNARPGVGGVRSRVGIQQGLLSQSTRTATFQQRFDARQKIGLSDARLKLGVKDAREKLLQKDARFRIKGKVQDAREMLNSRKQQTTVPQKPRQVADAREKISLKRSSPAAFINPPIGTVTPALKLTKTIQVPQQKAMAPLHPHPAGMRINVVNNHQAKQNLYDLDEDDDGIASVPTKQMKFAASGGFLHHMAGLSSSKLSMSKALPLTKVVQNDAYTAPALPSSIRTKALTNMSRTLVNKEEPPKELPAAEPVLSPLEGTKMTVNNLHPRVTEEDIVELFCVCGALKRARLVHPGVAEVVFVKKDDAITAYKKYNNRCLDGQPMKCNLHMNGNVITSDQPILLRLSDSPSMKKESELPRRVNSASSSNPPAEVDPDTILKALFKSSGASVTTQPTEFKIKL
UniProt O15318: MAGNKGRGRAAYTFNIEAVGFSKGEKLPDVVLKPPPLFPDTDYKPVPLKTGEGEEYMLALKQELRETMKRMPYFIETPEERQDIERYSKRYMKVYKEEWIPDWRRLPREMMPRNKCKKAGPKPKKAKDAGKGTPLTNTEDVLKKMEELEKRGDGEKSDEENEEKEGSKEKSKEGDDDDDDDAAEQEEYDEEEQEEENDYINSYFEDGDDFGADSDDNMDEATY
UniProt P45877: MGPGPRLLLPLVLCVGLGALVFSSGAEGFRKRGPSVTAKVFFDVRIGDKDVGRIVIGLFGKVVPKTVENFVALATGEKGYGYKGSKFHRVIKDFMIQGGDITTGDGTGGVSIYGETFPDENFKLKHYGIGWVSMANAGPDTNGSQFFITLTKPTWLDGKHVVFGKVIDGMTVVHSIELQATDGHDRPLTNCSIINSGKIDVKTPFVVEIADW
UniProt Q9HBL7: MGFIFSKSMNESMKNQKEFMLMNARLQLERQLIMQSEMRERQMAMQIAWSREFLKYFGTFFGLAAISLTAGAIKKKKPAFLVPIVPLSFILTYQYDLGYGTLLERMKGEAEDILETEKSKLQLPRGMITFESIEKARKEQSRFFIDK
UniProt Q6EEV4: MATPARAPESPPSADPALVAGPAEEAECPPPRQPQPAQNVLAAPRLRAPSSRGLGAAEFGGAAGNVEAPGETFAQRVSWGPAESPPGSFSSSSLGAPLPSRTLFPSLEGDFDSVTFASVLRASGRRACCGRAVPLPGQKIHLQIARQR

Tests used:
Experiment in all cases: log2 fold change, soluble protein after heating vs DMSO (PISA); higher = thermal stabilisation; K562 lysate, 10 uM; active = over 0.2 and 3.5 SD of the protein, either way, in both replicates (recomputed)
[1] = compound: C#Cc1cccc(Nc2ncnc3cc(OCCOC)c(OCCOC)cc23)c1 [erlotinib]
Summary of the method: (§1)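 A 30 min treatment with 10 μM compound was applied to crude K562 extract at 1 mg/mL protein in PBS pH 7.4 with 1 mM MgCl2. Heating for 3 min spanned 48°C-58°C, after which aliquots were pooled, adjusted to 0.5% NP-40 at 4°C and spun at 21,000xg for 90 min. TMTpro 16plex LC-MS/MS of the supernatant, with channel sums equalised, gave values recorded as log-two fold change in thermal stability against solvent controls, from duplicates.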

[2] = compound: C/C(=N\NC(=O)C1=CC(=CC=C1)S(=O)(=O)N2CCOCC2)/C3=C(C=CC(=C3)Cl)O
Summary of the method: as §1

[3] = compound: C1=CC(=CC=C1C2=NC3=C(N2)C=C(C=C3)C(=O)N)OC4=CC=C(C=C4)Cl
Summary of the method: as §1

[4] = compound: C1=CC2=C(C=CC(=C2)/C=C\3/C(=O)NC(=NCC4=CC=CS4)S3)N=C1
Summary of the method: as §1

[5] = compound: C1=CC2=NC=CN=C2C=C1/C=C/3\C(=O)NC(=O)S3
Summary of the method: as §1

[6] = compound: C1=CC=C(C=C1)C2=NC(=C(N2)C3=CC=NC=C3)C4=CC(=C(C=C4)Cl)O
Summary of the method: as §1

[7] = compound: C1=CC=C2C(=C1)C3=NNC4=CC=CC(=C43)C2=O
Summary of the method: as §1

[8] = compound: C1CCN(C1)C(=O)NC2=CC=CC(=C2)NC3=NC=C(C(=N3)NCCC4=CN=CN4)Br
Summary of the method: as §1

[9] = compound: C1CN(CCC1(CC2=CC=C(C=C2)Cl)N)C3=NC=NC4=C3C=CN4
Summary of the method: as §1

[10] = compound: C1COCCN1CCN2C3=CC=CC=C3N=C2NC(=O)C4=CC(=CC=C4)[N+](=O)[O-] [IRAK-1-4 Inhibitor I]
Summary of the method: as §1

[11] = compound: C=CC(=O)N1CCC[C@@H](n2nc(-c3ccc(Oc4ccccc4)cc3)c3c(N)ncnc32)C1 [ibrutinib]
Summary of the method: as §1

[12] = compound: CC(=O)c1cnc2ccc(-c3cc(Cl)c(O)c(Cl)c3)nc2c1N[C@H]1CC[C@H](CN(C)C)CC1
Summary of the method: as §1

[13] = compound: CC(C)(C)Cn1c(N)nc2ccc(-c3[nH]c(C(C)(C)C)nc3-c3ccc(F)cc3)nc21 [ralimetinib]
Summary of the method: as §1

[14] = compound: CC(C)(O)CC(=O)NCCn1ccc2ncnc(Nc3ccc(Oc4cccc(C(F)(F)F)c4)c(Cl)c3)c21
Summary of the method: as §1

[15] = compound: CC(C)C1=C2N=C(C=C(N2N=C1)NCC3=CC=CC=C3)NCCCCCCN
Summary of the method: as §1

[16] = compound: CC1=C(C(CC(=O)N1)C2=CC=C(C=C2)C(F)(F)F)C(=O)NC3=C(C=C4C(=C3)C=NN4)F
Summary of the method: as §1

[17] = compound: CC1=C(C2=C(C=C1)C(=O)C3=CC=CC=C3N2CCCN)C
Summary of the method: as §1

[18] = compound: CC1=C(C=C(C=C1)NC(=O)C2=CC(=CC=C2)C(C)(C)C#N)NC3=CC4=C(C=C3)N=CN(C4=O)C
Summary of the method: as §1

[19] = compound: CC1=C(C=C(C=C1)NC(=O)C2=CC(=CC=C2)N(C)C)NC(=O)C3=CC=C(C=C3)O
Summary of the method: as §1

[20] = compound: CC1=CC=C(C=C1)SC2=C3C=C(SC3=CN=C2)C(=O)N
Summary of the method: as §1

Measured: log2 fold change

POFUT1 (UniProt Q9H488)
inactive: [1] 0.026 | [2] 0.025 | [3] 0.021 | [4] 0.038 | [5] -0.03 | [6] -0.004 | [7] 0.022 | [8] 0.005 | [9] -0.009 | [10] 0.022 | [11] 0.012 | [12] 0.025 | [13] 0.001 | [14] -0.013 | [15] -0.004 | [16] -0.007 | [17] 0.043 | [18] -0.032 | [19] -0.006 | [20] 0.018

POLR2H (UniProt P52434)
inactive: [1] 0.022 | [2] -0.007 | [3] 0.036 | [4] -0.001 | [5] 0.034 | [6] -0.013 | [7] -0.017 | [8] -0.013 | [9] -0.014 | [10] 0.011 | [11] -0.014 | [12] -0.014 | [13] -0.059 | [14] -0.05 | [15] -0.035 | [16] 0.014 | [17] 0.003 | [18] 0.013 | [19] 0.001 | [20] -0.006

POLE (UniProt Q07864)
inactive: [1] 0.053 | [2] 0.002 | [3] -0.054 | [4] 0.032 | [5] 0.038 | [6] 0.022 | [7] -0.033 | [8] -0.004 | [9] 0.018 | [10] 0.04 | [11] 0.007 | [12] 0.034 | [13] 0.022 | [14] -0.055 | [15] -0.001 | [16] 0.03 | [17] -0.045 | [18] -0.025 | [19] 0.02 | [20] 0.124

POLR1E (UniProt Q9GZS1)
inactive: [1] -0.016 | [2] -0.032 | [3] 0.041 | [4] -0.025 | [5] -0.021 | [6] 0.014 | [7] 0 | [8] 0.007 | [9] -0.025 | [10] -0.069 | [11] -0.04 | [12] 0.005 | [13] 0.018 | [14] -0.004 | [15] -0.013 | [16] -0.022 | [17] 0.006 | [18] 0.01 | [19] 0.026 | [20] 0.032

PPA2 (UniProt Q9H2U2)
inactive: [1] -0.016 | [2] 0.029 | [3] 0.025 | [4] -0.018 | [5] 0.003 | [6] 0.003 | [7] 0.009 | [8] -0.001 | [9] 0.004 | [10] 0.004 | [11] 0.011 | [12] 0.007 | [13] -0.009 | [14] 0.003 | [15] 0.009 | [16] -0.013 | [17] 0.016 | [18] 0.004 | [19] -0.012 | [20] 0.018

POLD3 (UniProt Q15054)
inactive: [1] 0.015 | [2] 0.002 | [3] -0.006 | [4] -0.003 | [5] -0.048 | [6] 0.01 | [7] -0.048 | [8] -0.058 | [9] -0.012 | [10] -0.035 | [11] 0.018 | [12] 0.006 | [13] -0.027 | [14] -0.004 | [15] 0.035 | [16] 0.019 | [17] -0.008 | [18] -0.022 | [19] -0.017 | [20] -0.038

POSTN (UniProt Q15063)
inactive: [1] -0.08 | [2] -0.053 | [3] 0.057 | [4] -0.026 | [5] -0.046 | [6] -0.195 | [7] 0.1 | [8] -0.079 | [9] 0.106 | [10] 0.047 | [11] -0.001 | [13] -0.089 | [14] -0.129 | [15] -0.094 | [18] 0.088 | [19] 0.073

PPID (UniProt Q08752)
inactive: [1] -0.017 | [2] -0.034 | [3] 0.008 | [4] 0.004 | [5] -0.012 | [6] -0.029 | [7] -0.019 | [8] 0 | [9] -0.003 | [10] -0.002 | [11] -0.023 | [12] 0.005 | [13] -0.005 | [14] 0.019 | [15] 0.001 | [16] -0.02 | [17] 0.021 | [18] -0.011 | [19] 0.014 | [20] 0.005

Taken from the results shown (2 entries):
POLD3 (UniProt Q15054)
inactive: [1] 0.015 | [2] 0.002 | [3] -0.006 | [4] -0.003 | [5] -0.048 | [6] 0.01 | [7] -0.048 | [8] -0.058 | [9] -0.012 | [10] -0.035 | [11] 0.018 | [12] 0.006 | [13] -0.027 | [14] -0.004 | [15] 0.035 | [16] 0.019 | [17] -0.008 | [18] -0.022 | [19] -0.017 | [20] -0.038

POSTN (UniProt Q15063)
inactive: [1] -0.08 | [2] -0.053 | [3] 0.057 | [4] -0.026 | [5] -0.046 | [6] -0.195 | [7] 0.1 | [8] -0.079 | [9] 0.106 | [10] 0.047 | [11] -0.001 | [13] -0.089 | [14] -0.129 | [15] -0.094 | [18] 0.088 | [19] 0.073

Next results

PLP2 (UniProt Q04941)
inactive: [1] -0.038 | [2] -0.036 | [3] 0.016 | [4] -0.05 | [5] -0.083 | [7] -0.074 | [8] -0.023 | [9] -0.024 | [11] -0.012 | [12] -0.027 | [15] -0.188 | [16] -0.036 | [17] 0.026 | [18] 0.048 | [20] 0.049

POFUT2 (UniProt Q9Y2G5)
inactive: [1] 0.025 | [2] 0.018 | [3] 0.088 | [4] 0.008 | [5] -0.016 | [6] -0.04 | [7] -0.019 | [8] 0.012 | [9] 0 | [10] 0.073 | [11] -0.015 | [12] 0.003 | [13] 0.111 | [14] 0.036 | [15] -0.012 | [16] 0.002 | [17] -0.075 | [18] 0.021 | [19] -0.048 | [20] 0.007

POLDIP3 (UniProt Q9BY77)
inactive: [1] -0.047 | [2] -0.072 | [3] 0 | [4] 0.038 | [5] -0.15 | [6] 0.049 | [7] 0.053 | [10] 0.034 | [11] 0.055 | [12] -0.014 | [13] 0.02 | [14] 0.042 | [15] -0.028 | [16] 0.061 | [17] -0.095 | [18] 0.075 | [19] -0.034 | [20] 0.011

POLR2F (UniProt P61218)
inactive: [1] -0.05 | [2] -0.272 | [3] 0.069 | [4] -0.091 | [5] 0.033 | [6] 0.076 | [7] 0.01 | [8] 0.101 | [9] 0.019 | [10] -0.052 | [11] 0.02 | [12] 0.051 | [13] -0.238 | [14] -0.059 | [15] -0.11 | [16] -0.039 | [17] 0.096 | [18] 0.009 | [19] -0.157 | [20] 0.009

POLR3G (UniProt O15318)
inactive: [1] -0.002 | [2] -0.058 | [3] -0.026 | [4] 0.037 | [5] -0.014 | [6] -0.03 | [7] -0.009 | [8] 0.02 | [9] 0 | [10] 0.024 | [11] -0.04 | [12] 0.016 | [13] -0.032 | [14] -0.08 | [15] -0.018 | [16] 0.063 | [17] -0.009 | [18] 0.011 | [19] -0.001 | [20] -0.002

POLR2I (UniProt P36954)
inactive: [1] 0.024 | [2] 0.029 | [3] -0.089 | [4] 0.016 | [5] -0.027 | [6] -0.005 | [7] -0.004 | [10] -0.076 | [11] 0.031 | [12] 0.038 | [13] -0.023 | [14] 0.03 | [15] -0.172 | [16] -0.105 | [17] 0.085 | [18] 0.103 | [19] -0.145 | [20] 0.047

PPIC (UniProt P45877)
inactive: [1] 0.049 | [2] -0.042 | [3] 0.119 | [4] 0.025 | [5] 0.265 | [6] -0.032 | [7] 0.036 | [10] 0.06 | [11] 0.278 | [13] -0.17 | [14] 0.057 | [15] -0.021 | [16] -0.139 | [17] 0.138 | [18] 0.102 | [19] 0.05

PLGRKT (UniProt Q9HBL7)
inactive: [1] 0.029 | [2] 0.086 | [3] -0.09 | [4] 0.052 | [5] 0.026 | [6] 0.005 | [7] -0.146 | [8] -0.072 | [9] 0.014 | [10] -0.011 | [11] 0.11 | [13] 0.034 | [14] -0.092 | [15] 0.004 | [16] -0.005 | [17] -0.042 | [18] 0.057 | [19] 0.05

POLR2M (UniProt Q6EEV4)
inactive: [1] 0.011 | [2] 0.164 | [3] -0.025 | [4] -0.031 | [5] -0.045 | [7] -0.111 | [8] 0.052 | [9] -0.01 | [11] 0.005 | [12] -0.07 | [15] -0.109 | [17] 0.007 | [18] 0.157 | [20] 0.078
